In PubChem BioAssay AID504327 (National Center for Advancing Translational Sciences (NCATS), 2011):
In all, about 390,000 compounds went through this assay and about 820 (0.21%) were called active. The inconclusive results got no clear call from the source; some entries with a clear call stand among them for comparison. The call rests on the fitted dose curve; in most records, active means well fitted inhibition curve with a large enough effect; inconclusive means small, poorly fitted or top-dose-only effect, or another doubt; inactive means no such curve, though single readings can be large or run the other way. Where the call is inconclusive, the potency comes from a doubtful curve fit.

Chains of the proteins cited; added tags and fusions are not shown.
UniProt Q92830, whole entry, looked up: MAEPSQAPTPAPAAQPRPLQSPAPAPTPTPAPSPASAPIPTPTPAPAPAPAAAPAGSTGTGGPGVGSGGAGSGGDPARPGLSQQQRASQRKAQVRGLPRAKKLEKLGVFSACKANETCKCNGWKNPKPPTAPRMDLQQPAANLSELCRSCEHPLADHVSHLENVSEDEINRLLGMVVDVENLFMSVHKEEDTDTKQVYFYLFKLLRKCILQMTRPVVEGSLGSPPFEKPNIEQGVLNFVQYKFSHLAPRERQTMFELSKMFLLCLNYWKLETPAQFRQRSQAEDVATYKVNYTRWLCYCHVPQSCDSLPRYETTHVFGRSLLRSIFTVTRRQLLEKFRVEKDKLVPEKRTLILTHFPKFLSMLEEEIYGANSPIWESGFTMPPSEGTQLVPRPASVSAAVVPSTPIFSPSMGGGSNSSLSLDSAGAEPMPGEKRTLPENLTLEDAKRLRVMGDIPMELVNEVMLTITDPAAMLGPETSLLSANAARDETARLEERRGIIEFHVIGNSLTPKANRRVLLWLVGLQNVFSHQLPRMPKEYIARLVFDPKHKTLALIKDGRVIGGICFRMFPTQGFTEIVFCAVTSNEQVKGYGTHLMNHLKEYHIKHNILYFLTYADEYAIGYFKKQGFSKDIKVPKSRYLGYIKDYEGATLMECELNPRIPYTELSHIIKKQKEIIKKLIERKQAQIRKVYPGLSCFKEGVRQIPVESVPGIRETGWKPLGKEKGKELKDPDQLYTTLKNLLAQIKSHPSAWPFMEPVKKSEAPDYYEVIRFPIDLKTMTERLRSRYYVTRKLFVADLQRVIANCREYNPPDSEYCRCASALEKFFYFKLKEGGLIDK

target: Histone acetyltransferase KAT2A (Homo sapiens) (UniProt Q92830); test: qHTS Assay for Inhibitors of GCN5L2; details: GCN5L2 HAT assay, ThioGlo1 CoA-SH fluorescence; activity change, negative = inhibition: at 58.9 µM (top of the series) unless noted
Method in brief: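 Fluorescence readout, Ex340nm/Em540nm: ThioGlo1 (50uM final) reacts with free CoA thiol released as 20nM GCN5L2 acetylates H3(1-25) peptide (75uM) using acetyl-CoA (70uM). Compound and enzyme sat 15 min beforehand; 20 min room-temperature reaction.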
On the % scale 0 is the no-effect control and ±100 the full control effect; potency means the concentration at half of the fitted maximal effect.

SMILES | Potency | activity change, negative = inhibition
CCCN1CCN(CCCNC(=O)c2cc3c(s2)-c2c(C)cccc2OC3)CC1 | inconclusive: 35.5 µM [inhibitor, single point] | –
COc1ccc(CNC(=O)C2CCN(c3nnc(N4CCCC4=O)s3)CC2)cc1 | inconclusive: 3.55 µM [inhibitor, partial curve] | –
O=c1[nH]c2cc(Cl)ccc2c(O)c1-c1cccc(Oc2ccccc2)c1 | inconclusive: 35.5 µM [inhibitor, single point] | –
Cc1ccc(C)c(OCCCC(C)(C)C(=O)O)c1 | inconclusive: 15.8 µM [inhibitor, single point] | –
COc1cc(/C=N/O)ccc1Oc1ccc([N+](=O)[O-])cc1[N+](=O)[O-] | inconclusive: 0.708 µM [inhibitor, single point] | –
Cc1nn(Cc2ccc(Cl)cc2)c(C)c1NC(=O)C1CC=CCC1C(=O)O (configuration not stated) | inconclusive: 1.26 µM [inhibitor, full curve] | –
COc1ccc(C)cc1NC(=O)CSc1ncc2c(n1)-c1ccc(Cl)cc1N(Cc1ccccc1)S2(=O)=O | – | inactive: -0.516%
O=C(O)COc1ccccc1C(Nc1cccnc1)c1cc(Cl)c2cccnc2c1O (configuration not stated) | inconclusive: 39.8 µM [inhibitor, single point] | –
Oc1sc(C=Nc2ccc(F)cc2)c2ccccc12 | inconclusive: 22.4 µM [inhibitor, partial curve, poor fit] | –
Clc1ccc(CN=C2Nc3ccccc3CS2)cc1 | inconclusive: 0.631 µM [inhibitor, single point] | –
O=C(COC(=O)CCN1C(=O)C2CC=CCC2C1=O)NCCc1ccccc1 (configuration not stated) | inconclusive: 6.31 µM [inhibitor, single point] | –
COc1ccc(CCNC(=O)COC(=O)CNS(=O)(=O)c2ccc(SC)c([N+](=O)[O-])c2)cc1 | inconclusive: 8.91 µM [inhibitor, full curve, poor fit] | –
CCCNC(=O)c1nnsc1S(=O)(=O)c1ccc(Cl)cc1 | inconclusive: 39.8 µM [inhibitor, partial curve, poor fit] | –
Cc1ccccc1NC(=O)c1ccc2c(c1)CCN2S(C)(=O)=O | inconclusive: 3.55 µM [inhibitor, single point] | –
CSc1ccccc1C(=O)N1CCCCC1 | – | inactive: -2.81%
COCCn1c(=O)c(-c2ccc(OC)cc2)nc2cnc(N3CCOCC3)nc21 | inconclusive: 3.55 µM [inhibitor, full curve] | –
COC(=O)[C@@H]1C[C@@]2(O)[C@H](O)[C@H](O)[C@H](O)C[C@H]2N1C/C=C/c1ccccc1 | inconclusive: 3.98 µM [inhibitor, partial curve, poor fit] | –

For convenience, two of the compounds above.
SMILES | Potency | activity change, negative = inhibition
O=c1[nH]c2cc(Cl)ccc2c(O)c1-c1cccc(Oc2ccccc2)c1 | inconclusive: 35.5 µM [inhibitor, single point] | –
Cc1ccc(C)c(OCCCC(C)(C)C(=O)O)c1 | inconclusive: 15.8 µM [inhibitor, single point] | –
